Source: paper PMC12293422
Read-outs that look alike come from different tables or passages of the source. Results are given in words; binding and its absence hold for the method and conditions named. Binding seen in cells or lysates may run through a third protein. Some entries that bind do so weakly or less than the wild type. For some assays here: Tags and fused reporters may be left off the sequences shown. Each block holds one molecule with its values, some of them ahead of it.

By UniProt entry, the sequences of proteins in these tests, tags left out. Where a name states a change or a piece, a line headed by the entry shows the natural chain unless it says otherwise. Chains listed by the source or under a name are the forms on record and can include a tag or linker.
UniProt Q9NQS7: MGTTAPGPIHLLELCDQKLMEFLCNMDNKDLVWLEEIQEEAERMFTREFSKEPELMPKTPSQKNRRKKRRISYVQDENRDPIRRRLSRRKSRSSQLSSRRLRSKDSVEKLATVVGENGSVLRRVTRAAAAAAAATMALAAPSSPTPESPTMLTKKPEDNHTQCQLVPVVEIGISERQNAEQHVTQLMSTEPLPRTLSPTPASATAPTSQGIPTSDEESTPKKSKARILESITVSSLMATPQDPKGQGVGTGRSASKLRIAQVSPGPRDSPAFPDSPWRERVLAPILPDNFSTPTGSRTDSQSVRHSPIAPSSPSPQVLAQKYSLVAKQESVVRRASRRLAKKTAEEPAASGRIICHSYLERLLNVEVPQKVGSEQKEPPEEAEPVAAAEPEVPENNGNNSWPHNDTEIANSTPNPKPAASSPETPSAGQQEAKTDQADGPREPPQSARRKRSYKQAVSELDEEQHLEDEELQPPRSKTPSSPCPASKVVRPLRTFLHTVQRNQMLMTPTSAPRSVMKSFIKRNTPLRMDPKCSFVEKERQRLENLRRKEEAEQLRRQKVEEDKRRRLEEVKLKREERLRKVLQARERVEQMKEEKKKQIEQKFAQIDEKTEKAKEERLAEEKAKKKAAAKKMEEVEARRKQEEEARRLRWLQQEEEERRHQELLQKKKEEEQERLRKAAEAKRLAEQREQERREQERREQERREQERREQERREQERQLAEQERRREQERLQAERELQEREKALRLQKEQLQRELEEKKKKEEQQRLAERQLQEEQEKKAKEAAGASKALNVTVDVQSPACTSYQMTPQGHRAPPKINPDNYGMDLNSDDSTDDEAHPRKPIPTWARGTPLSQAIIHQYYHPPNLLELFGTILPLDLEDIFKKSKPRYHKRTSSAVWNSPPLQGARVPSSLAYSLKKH
Flag-tagged INCENP (inner centromere protein) (Q9NQS7, form named): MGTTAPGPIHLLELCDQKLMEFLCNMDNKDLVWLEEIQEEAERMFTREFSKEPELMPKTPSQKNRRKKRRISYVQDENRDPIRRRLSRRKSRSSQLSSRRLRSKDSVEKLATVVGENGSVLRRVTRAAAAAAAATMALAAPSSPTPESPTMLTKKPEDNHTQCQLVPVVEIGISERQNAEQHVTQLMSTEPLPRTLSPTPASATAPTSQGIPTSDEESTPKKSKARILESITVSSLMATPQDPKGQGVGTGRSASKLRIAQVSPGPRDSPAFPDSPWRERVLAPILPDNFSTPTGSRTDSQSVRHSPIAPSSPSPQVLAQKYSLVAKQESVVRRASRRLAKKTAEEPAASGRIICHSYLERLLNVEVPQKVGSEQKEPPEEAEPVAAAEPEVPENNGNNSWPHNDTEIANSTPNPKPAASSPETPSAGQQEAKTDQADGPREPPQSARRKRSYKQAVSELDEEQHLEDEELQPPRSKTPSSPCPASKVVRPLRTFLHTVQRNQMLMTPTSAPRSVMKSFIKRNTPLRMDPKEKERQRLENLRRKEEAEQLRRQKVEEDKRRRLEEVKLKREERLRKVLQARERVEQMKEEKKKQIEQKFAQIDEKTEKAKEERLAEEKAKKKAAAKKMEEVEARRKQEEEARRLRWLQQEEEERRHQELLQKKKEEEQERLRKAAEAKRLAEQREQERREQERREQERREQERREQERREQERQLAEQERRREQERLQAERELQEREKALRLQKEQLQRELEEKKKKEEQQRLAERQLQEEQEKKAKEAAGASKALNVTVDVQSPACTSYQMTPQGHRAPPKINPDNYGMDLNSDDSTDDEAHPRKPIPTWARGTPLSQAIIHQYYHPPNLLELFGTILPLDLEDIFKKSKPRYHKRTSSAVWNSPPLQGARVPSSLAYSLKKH
UniProt O15392: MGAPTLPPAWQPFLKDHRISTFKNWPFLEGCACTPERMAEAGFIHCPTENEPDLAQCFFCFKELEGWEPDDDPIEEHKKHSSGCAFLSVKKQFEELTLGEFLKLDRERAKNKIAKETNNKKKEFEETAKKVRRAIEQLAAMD

How the values were obtained:
[1] = target: Flag-tagged INCENP (inner centromere protein) (UniProt Q9NQS7); assay: co-IP; HEK293T cells co-transfected with two tagged proteins (Flag, Myc or HA), lysed 48 h later in RIPA buffer (1% NP-40, 150 mM NaCl, 50 mM Tris-HCl, 10% glycerol, 1 mM DTT); IP with anti-Flag (M2) or anti-Myc agarose overnight at 4 °C, Western blot; Figure 3A,B with HA-ubiquitin and MG132; Figure 3H in MSL1-KO against control cells
[2] = target: Flag-tagged INCENP (inner centromere protein) (UniProt Q9NQS7); assay: co-IP; Flag IP (anti-Flag M2 agarose, overnight at 4 °C) from whole-cell lysates of HEK293T cells transfected with the Flag-tagged bait; endogenous partners detected by Western blot; RIPA buffer with 1% NP-40, 150 mM NaCl, 50 mM Tris-HCl, 10% glycerol, 1 mM DTT; in Figure 2M with or without shMSL1
Flag-tagged MSL1 = target: T1, Flag-tagged MSL1 (UniProt Q68DK7); assay: as above
T1 sequence: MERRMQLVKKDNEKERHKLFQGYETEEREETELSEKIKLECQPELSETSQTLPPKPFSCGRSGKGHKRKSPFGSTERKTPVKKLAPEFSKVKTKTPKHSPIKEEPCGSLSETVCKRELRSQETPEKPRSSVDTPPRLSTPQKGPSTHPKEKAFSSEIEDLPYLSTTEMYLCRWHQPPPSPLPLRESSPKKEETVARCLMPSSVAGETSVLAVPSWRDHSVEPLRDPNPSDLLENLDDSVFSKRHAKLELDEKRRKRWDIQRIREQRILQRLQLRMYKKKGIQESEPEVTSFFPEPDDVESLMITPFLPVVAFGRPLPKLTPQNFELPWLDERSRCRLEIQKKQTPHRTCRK

[3] = target: Flag-tagged AURKB K215Q (acetylation-mimetic mutant) (UniProt Q96GD4); assay: as above
[4] = target: Flag-tagged AURKB (Aurora kinase B), wild type (UniProt Q96GD4); assay: as above
[5] = target: Flag-tagged INCENP (inner centromere protein) (UniProt Q9NQS7); assay: co-IP; HEK293T cells co-transfected with two tagged proteins (Flag, Myc or HA), lysed 48 h later in RIPA buffer (1% NP-40, 150 mM NaCl, 50 mM Tris-HCl, 10% glycerol, 1 mM DTT); IP with anti-Flag (M2) or anti-Myc agarose overnight at 4 °C, Western blot; Figure 3A,B with HA-ubiquitin and MG132; Figure 3H in MSL1-KO against control cells; remark: listed apart in the source
[6] = target: Flag-tagged AURKB (Aurora kinase B), wild type (UniProt Q96GD4); assay: as above
[7] = target: T2, Flag-tagged AURKB (Aurora kinase B), wild type, Q96GD4; assay: co-IP; Flag IP (anti-Flag M2 agarose, overnight at 4 °C) from whole-cell lysates of HEK293T cells transfected with the Flag-tagged bait; endogenous partners detected by Western blot; RIPA buffer with 1% NP-40, 150 mM NaCl, 50 mM Tris-HCl, 10% glycerol, 1 mM DTT; in Figure 2M with or without shMSL1; conditions: remark: other sources report otherwise
T2 chain: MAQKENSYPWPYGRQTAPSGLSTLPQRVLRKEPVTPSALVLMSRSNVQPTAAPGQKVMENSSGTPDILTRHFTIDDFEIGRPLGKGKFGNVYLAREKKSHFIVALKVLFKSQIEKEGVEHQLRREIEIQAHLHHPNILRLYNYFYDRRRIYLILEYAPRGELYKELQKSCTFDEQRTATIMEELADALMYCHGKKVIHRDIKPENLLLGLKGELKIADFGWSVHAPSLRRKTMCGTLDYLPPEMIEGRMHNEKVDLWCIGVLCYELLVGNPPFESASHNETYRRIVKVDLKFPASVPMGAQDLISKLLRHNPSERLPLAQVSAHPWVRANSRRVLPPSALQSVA

[8] = target: Flag-tagged AURKB K215Q (acetylation-mimetic mutant) (UniProt Q96GD4); assay: as above; remark: listed apart in the source

Molecule: endogenous BIRC5 (Survivin) (from UniProt O15392 1-142)
binding [3]: binds
binding [4]: binds

Molecule: endogenous INCENP (inner centromere protein) (from UniProt Q9NQS7 1-918)
binding [3]: binds
binding [4]: binds

B1: full-length Myc-tagged MOF (1-458 aa) (enzyme, UniProt Q9H7Z6-1 1-458)
chain: MAAQGAAAAVAAGTSGVAGEGEPGPGENAAAEGTAPSPGRVSPPTPARGEPEVTVEIGETYLCRRPDSTWHSAEVIQSRVNDQEGREEFYVHYVGFNRRLDEWVDKNRLALTKTVKDAVQKNSEKYLSELAEQPERKITRNQKRKHDEINHVQKTYAEMDPTTAALEKEHEAITKVKYVDKIHIGNYEIDAWYFSPFPEDYGKQPKLWLCEYCLKYMKYEKSYRFHLGQCQWRQPPGKEIYRKSNISVYEVDGKDHKIYCQNLCLLAKLFLDHKTLYFDVEPFVFYILTEVDRQGAHIVGYFSKEKESPDGNNVACILTLPPYQRRGYGKFLIAFSYELSKLESTVGSPEKPLSDLGKLSYRSYWSWVLLEILRDFRGTLSIKDLSQMTSITQNDIISTLQSLNMVKYWKGQHVICVTPKLVEEHLKSAQYKKPPITVDSVCLKWAPPKHKQVKLSKK
binding [5]: binds
binding [6]: binds

B2: endogenous CDCA8 (Borealin), Q53HL2 1-280 (protein)
chain: MAPRKGSSRVAKTNSLRRRKLASFLKDFDREVEIRIKQIESDRQNLLKEVDNLYNIEILRLPKALREMNWLDYFALGGNKQALEEAATADLDITEINKLTAEAIQTPLKSAKTRKVIQVDEMIVEEEEEEENERKNLQTARVKRCPPSKKRTQSIQGKGKGKRSSRANTVTPAVGRLEVSMVKPTPGLTPRFDSRVFKTPGLRTPAAGERIYNISGNGSPLADSKEIFLTVPVGGGESLRLLASDLQRHSIAQLDPEALGNIKKLSNRLAQICSSIRTHK
binding [7]: binds

Second part, the molecule after the results:

binding [1]: binds
Molecule: Myc-tagged AURKB (from UniProt Q96GD4-1 1-344) (enzyme)

binding [2]: binds
binding (Flag-tagged MSL1): binds
Molecule: endogenous AURKB (Aurora kinase B) (from UniProt Q96GD4 1-344) (enzyme)

binding [8]: binds
B3: endogenous CDCA8 (Borealin) (protein, UniProt Q53HL2 1-280)
chain: B2 chain
